Out of some 300,000 compounds screened, about 3,700 (1.2%) were called active. This list was built around the results that the source calls inconclusive (neither active nor inactive); the mix of calls is not that of the screen. The call rests on the fitted dose curve; tested in HEK293 cells. A potency beside an inconclusive call is a rough fit, not a confirmed value.
Assay: qHTS for Inhibitors of binding or entry into cells for Lassa Virus; further: nearly all actives have a fitted effect of over 50% in size
Details: Lassa virus pseudotype entry inhibition, cell reporter; activity change, negative = inhibition: at 37.9 µM (top of the series) unless noted
With `COc1cc(C(=O)N/N=C(\C)c2ccc3c(c2)OCO3)cc(OC)c1OC` the Potency was inconclusive: 6.31 µM [inhibitor, partial curve, poor fit]. With `Cc1ccc(F)cc1NC(=O)CCOc1ccccc1` the Potency was inconclusive: 35.5 µM [inhibitor, single point]. In the case of `CCOC(=O)CSc1nc2cc(C)cc(C)c2cc1C#N`, the Potency is reported as inconclusive: 12.6 µM [activator, single point]. With `O=C(COc1cccc2ccccc12)NNC(=O)c1cccs1` the Potency was “inactive”. In the case of `CCOc1ccc(S(=O)(=O)Nc2cccc(C(=O)NCC(c3ccco3)N(C)C)c2)cc1` (stereo unspecified), the Potency is reported as “inactive”. In the case of `CCCc1cc(=O)[nH]c(Nc2cc(Cl)cc(Cl)c2)n1`, the Potency is reported as inconclusive: 3.98 µM [inhibitor, single point]. In the case of `CCOC(=O)C1CCN(c2nc(-c3ccc(C)cc3)nc3ccccc23)CC1`, the Potency is reported as “inactive”. With `CCCCN(CCCC)CCCNC(=O)c1cc(-c2ccc(Cl)s2)nc2ccccc12` the Potency was “inactive”. For `COc1ccc(C(=O)N/N=C(/C)c2cccc(NC(=O)c3ccccc3F)c2)cc1`, the Potency was “inactive”. In the case of `CC(C)NC(=O)c1ccc(CSc2nc3ccncc3n2Cc2cccc(F)c2)cc1`, the Potency is reported as “inactive”. In the case of `CCC(=O)C1CCCN(C(=O)CCc2nnc(C3(c4ccc(Cl)cc4)CCC3)o2)C1` (stereo unspecified), the Potency is reported as inconclusive: 3.16 µM [inhibitor, single point]. With `O=[N+]([O-])c1ccc(N2CCN(S(=O)(=O)c3ccccc3)CC2)cc1NCc1cccnc1` the Potency was inconclusive: 25.1 µM [inhibitor, single point]. In the case of `CN(C)CCOc1ccc(-c2cc(-c3ccc4c(c3)CCC4=NO)c(-c3ccncc3)o2)cc1`, the Potency is reported as inconclusive: 25 µM [inhibitor, partial curve, poor fit]. With `CC(C)(Cc1ccc(O)cc1)NC(=O)CC(=O)N=Nc1c(O)[nH]c2cc(Br)ccc12` the Potency was “inactive”. For `O=c1[nH][nH]c(-c2ccccc2O)c1C(C[N+](=O)[O-])c1ccc(Cl)cc1Cl` (stereo unspecified), the Potency was “inactive”. With `Cc1cc(N(CN2CCCC2=O)C(=O)c2ccc(F)cc2)no1` the Potency was inconclusive: 4.61 µM [inhibitor, partial curve, poor fit]. For `FC(F)(F)c1cccc(Nc2nc3nonc3nc2Nc2ccc(Cl)cc2)c1`, the Potency was inconclusive: 1 µM [inhibitor, full curve, poor fit]. With `Cc1cc(C)c[n+](CC(=O)c2ccc(-c3ccccc3)cc2)c1` the Potency was inconclusive: 0.58 µM [inhibitor, single point]. With `FC(F)(F)c1cc(-c2ccco2)nc(NCc2ccc(Cl)cc2)n1` the Potency was inconclusive: 23.1 µM [inhibitor, single point]. For `COc1ccc(NC2CCCN(C(=O)Cn3ccc(C)n3)C2)cc1OC` (stereo unspecified), the Potency was “inactive”. With `C[C@H](NC(=O)/C(C#N)=C/c1ccc(O)c(O)c1)c1ccccc1` the Potency was inconclusive: 14.6 µM [inhibitor, single point]. With `Cc1ccc(NCCC(=O)c2cccc([N+](=O)[O-])c2)c(C)c1` the Potency was inconclusive: 0.082 µM [activator, full curve, poor fit]. In the case of `O=C(CCCCCn1c(=O)[nH]c2ccccc2c1=O)N1CCN(c2cccc(C(F)(F)F)c2)CC1`, the Potency is reported as inconclusive: 22.4 µM [inhibitor, single point]. In the case of `O=S(=O)(NCCNC/C=C/c1ccc(Br)cc1)c1cccc2cnccc12`, the activity change, negative = inhibition is reported as inconclusive: 6.55% [activator]. In the case of `Cc1ccc(-c2nc3sc(CCNC(=O)c4ccc(F)c(F)c4)c(C)n3n2)cc1`, the Potency is reported as “inactive”. In the case of `Cc1ccc(C(=O)NCc2ccc3c(c2)CCO3)cc1C`, the Potency is reported as inconclusive: 14.1 µM [inhibitor, single point]. In the case of `O=c1c2ccccc2nc(SCc2ccc([N+](=O)[O-])cc2)n1CCCO`, the Potency is reported as inconclusive: 14.1 µM [inhibitor, partial curve, poor fit]. For `COc1ccc(OCCCn2c(C3CC(=O)N(c4ccc(F)cc4)C3)nc3ccccc32)cc1` (stereo unspecified), the Potency was inconclusive: 35.5 µM [inhibitor, single point]. In the case of `CC(OC(=O)CCN1C(=O)C2CC=CCC2C1=O)C(=O)Nc1cccc(Cl)c1` (stereo unspecified), the Potency is reported as inconclusive: 5.01 µM [activator, single point]. With `COCCNC(=O)CSc1nnc(-c2ccc(C)cc2)c(-c2ccc(C)cc2)n1` the Potency was inconclusive: 0.398 µM [inhibitor, partial curve, poor fit]. In the case of `Cc1ccc(NC(=O)CN(C)C(=O)CCC(=O)c2cccs2)cc1`, the Potency is reported as “inactive”. For `Cc1cc(C)c2c(NC(=O)c3ccccc3Cl)c(C(=O)NCc3ccc(Cl)cc3)sc2n1`, the Potency was inconclusive: 10 µM [inhibitor, partial curve, poor fit]. With `CC(C)C(=O)N1CCC(n2nccc2NC(=O)CCOc2ccccc2)CC1` the Potency was “inactive”. In the case of `N#CCSc1nc2c(c(C3CC=CCC3)c1C#N)CCC2` (stereo unspecified), the Potency is reported as inconclusive: 14.6 µM [inhibitor, partial curve]. For `COc1ccc(CNC(=O)c2coc(=O)c3ccccc23)c(OC)c1`, the Potency was inconclusive: 14.1 µM [inhibitor, single point]. In the case of `Cc1cc(CN(C)Cc2ccc(OCC(O)CN(C)Cc3ccccc3)cc2)on1` (stereo unspecified), the Potency is reported as “inactive”. With `Cc1cc(Nc2cc(Cl)ccc2C)n2nc(-c3ccccc3)nc2n1` the Potency was “inactive”. In the case of `Cc1ccccc1-c1noc(-c2ccc(NCc3cccnc3)c([N+](=O)[O-])c2)n1`, the Potency is reported as “inactive”. For `Cc1ccc(C(C)C)c(OCC(=O)Nc2sc3c(c2C#N)CC(C)(C)NC3(C)C)c1`, the Potency was “inactive”. In the case of `CN(CC(=O)Nc1c(Cl)cccc1Cl)C(=O)CCC1CCCC1`, the Potency is reported as “inactive”. For `CC(=O)Nc1cccc(NC(=O)CSc2nccn2Cc2ccccc2)c1`, the Potency was inconclusive: 35.5 µM [inhibitor, single point]. For `Cc1c(CC(=O)NCC(=O)O)c(=O)oc2cc3occ(-c4ccccc4)c3cc12`, the Potency was inconclusive: 35.5 µM [activator, single point]. With `COc1ccccc1C1C(C#N)=C(N)Oc2c1oc(CO)cc2=O` (stereo unspecified) the Potency was “inactive”. In the case of `COc1ccc2c(-c3ccnc(Nc4cccc(OC(F)(F)F)c4)n3)cnn2n1`, the Potency is reported as inconclusive: 1.99 µM [inhibitor, full curve, poor fit]. For `Cc1cccc(C(=O)n2c(=S)nc3cc(C)ccn32)c1`, the Potency was inconclusive: 10 µM [inhibitor, single point]. For `COc1ccc(C(=O)Nn2c(SCC(=O)NCc3ccccc3)nc3ccccc3c2=O)cc1`, the Potency was inconclusive: 1.16 µM [activator, single point]. With `COc1ccccc1CNC(=O)Cc1ccccc1` the Potency was “inactive”. For `COc1ccc(OC(=O)c2cccc(S(=O)(=O)N3CCCC3)c2)cc1`, the Potency was “inactive”. For `CCN(CC)C(=O)c1ccc2c3c(cccc13)C(=O)N(CCc1ccc(OC)c(OC)c1)C2=O`, the Potency was inconclusive: 35.5 µM [inhibitor, single point]. With `CCCC/C(=N/O)c1c(C)[nH]c2ccccc12` the Potency was inconclusive: 15.8 µM [inhibitor, single point]. In the case of `COc1ccc([C@H]2C[C@H](O)[C@@H](n3cc(COC(=O)c4ccccc4)nn3)CN2Cc2cccs2)cc1`, the Potency is reported as inconclusive: 3.15 µM [inhibitor, full curve, poor fit]. In the case of `CCOc1cc(N2CCOCC2)c(OCC)cc1NC(=O)COc1ncnc2ccccc12`, the Potency is reported as “inactive”. In the case of `COc1ccc(NC(=O)C2CCC(N3C(=O)C4C5C=CC(C5)C4C3=O)CC2)cc1` (stereo unspecified), the Potency is reported as “inactive”. In the case of `COc1cc(OC)c(NC(=O)c2ccc(-n3cnc4cccnc43)cc2)cc1Cl`, the Potency is reported as inconclusive: 15.8 µM [activator, single point]. For `CCOC(=O)N1CCN(C(=O)c2ccc(NC(=O)c3ccc(C)cc3)cc2)CC1`, the Potency was inconclusive: 1.26 µM [activator, single point]. With `Cc1ccc(NC(=O)CN2C(=O)c3ccccc3C2=O)c(C)c1` the Potency was “inactive”. With `Cc1ccc2nc(-c3ccc4c(c3)OCCO4)cn2c1` the Potency was active: 1 µM. In the case of `COC(=O)CSc1cnc2ccccc2n1`, the Potency is reported as “inactive”. With `COc1ccc(-c2coc3cc(O)cc(O)c3c2=O)cc1` the Potency was inconclusive: 29.1 µM [inhibitor, single point]. With `O=C(COc1ccc(Cl)cc1)N(c1ccccc1Cl)C1CN2CCC1CC2` (stereo unspecified) the Potency was inconclusive: 35.5 µM [inhibitor, single point]. In the case of `CCOc1cccc2sc(N3CCN(C(=O)c4ccco4)CC3)nc12`, the Potency is reported as “inactive”. With `O=c1c2c(nc3n1CCCCC3)-c1ccccc1CC21CCCC1` the Potency was inconclusive: 16.4 µM [inhibitor, single point]. For `CC(=O)OCCN(C)c1cc(SC(C)C)c2nonc2c1[N+](=O)[O-]`, the Potency was “inactive”. In the case of `COc1ccccc1OCCOCCOc1c(C)cc(C)cc1Br`, the Potency is reported as “inactive”. In the case of `O=C(CC1(O)C(=O)Nc2ccccc21)c1ccccc1O` (stereo unspecified), the Potency is reported as “inactive”. With `C=CCN(c1ccccc1OC)S(=O)(=O)c1cccc(C(=O)NC2=NCCS2)c1` the Potency was inconclusive: 12.6 µM [inhibitor, single point]. With `O=C(CSc1nnc(SCc2ccccc2)s1)N/N=C/c1c[nH]c2ccccc12` the Potency was “inactive”. In the case of `O=C1[C@@H]2Cc3c([nH]c4ccccc34)[C@@H](c3ccccc3)N2C(=O)[C@@H]2Cc3c([nH]c4ccccc34)[C@@H](c3ccccc3)N12`, the Potency is reported as inconclusive: 13 µM [inhibitor, partial curve, poor fit]. With `Cc1nc2cc(NC(=O)CS(=O)(=O)c3ccc(F)cc3)ccc2s1` the Potency was inconclusive: 35.5 µM [activator, single point]. With `O=C(CSc1nc2c([nH]c3ccccc32)c(=O)n1-c1ccccc1)N1CCCCC1` the Potency was “inactive”. For `COc1cccc(CC2(CO)CCCN(Cc3ccc4c(c3)OCCO4)C2)c1` (stereo unspecified), the Potency was inconclusive: 35.5 µM [inhibitor, single point].

Reference: PubChem BioAssay AID540256 (National Center for Advancing Translational Sciences (NCATS), 2011)
On the % scale 0 is the no-effect control and ±100 the full control effect; potency means the concentration at half of the fitted maximal effect.
